Experimental data: US4130637A, “Anti-plaque agents” (Colgate-Palmolive Company, priority 1977, dated 1978)

Key:
Experiment in all cases: Minimum inhibitory concentration, test tube serial dilution test
A. niger = type: cell-based; conditions: Aspergillus niger, read-out: Minimum Inhibitory Concentration
Method: (§1) The antimicrobial nature of the instant novel nontoxic compounds was shown by a standard test tube serial dilution test in which an appropriate number of test tubes of broth containing decreasing concentration of the test agent was innoculated with the test organism (0.1% in 95% ethyl alcohol). After a suitable period of incubation, the tubes were examined for the presence or absence of growth. The activity of the test agent was the lowest concentration which inhibited the growth of the organism and is expressed as the minimal inhibitory concentration in μgm/ml.

C. albicans = type: cell-based; conditions: Candida albicans, read-out: Minimum Inhibitory Concentration
Method: as §1

Ps. aeruginosa = type: cell-based; conditions: Pseudomonas aeruginosa, read-out: Minimum Inhibitory Concentration
Method: as §1

Staphylococcus aureus = type: cell-based; conditions: read-out: Minimum Inhibitory Concentration
Method: as §1

Strep. mutans = type: cell-based; conditions: Streptococcus mutans, read-out: Minimum Inhibitory Concentration
Method: as §1

Strep. sanguis = type: cell-based, Streptococcus sanguis; conditions: Streptococcus, read-out: Minimum Inhibitory Concentration
Method: as §1

A. naeslundi = type: cell-based, Actinomycetis naeslundii; conditions: Actinomyces naeslundii, read-out: Minimum Inhibitory Concentration
Method: as §1

E. Coli = type: cell-based; conditions: Escherichia coli, Gram Negative
Excerpt: More specifically they are particularly effective against gram positive organisms such as Staphylococcus aureus, Streptococcus sanguis and mutans and Actinomycetis naeslundii; gram negative organisms such as Pseudomonas aeruginosa and Escherichia coli; and against fungi, such as Candida albicans (yeast) and Trichophyton mentogrophytes and Aspergillus niger (mold).
as §1, with “μgm/ml. As shown in the following table of anitmicrobial data, the betaines of this invention are active against a variety of micro-organisms with maximum activity when the higher alkyl group has 14-16 carbons.” for “μgm/ml.”

T. ment. = type: cell-based, Trichophyton mentogrophytes; conditions: Trichophyton, read-out: Minimum Inhibitory Concentration
Method: as §1

Compound: CC(C)(C)CC(C)(C)c1ccc(OCCOCC[N+](C)(C)Cc2ccccc2)cc1 [Benzethonium Chloride, benzethonium chloride, reference compound]
- MIC (A. niger): 50 µg/mL
- MIC (C. albicans): 1.56 µg/mL
- MIC (Ps. aeruginosa): 50 µg/mL
- MIC (Staphylococcus aureus): 0.78 µg/mL
- MIC (Strep. mutans): 0.78 µg/mL
- MIC (Strep. sanguis): 3.12 µg/mL
- MIC (A. naeslundi): 0.39 µg/mL
- MIC (E. Coli): 100 µg/mL
- MIC (T. ment.): 12.5 µg/mL
